Source: patent US20220003750A1, “FUNCTIONAL SCREEN FOR SMALL MOLECULE AND MONOCLONAL ANTIBODY DRUG SENSITIVITY IN MULTIPLE MYELOMA PATIENTS” (The Regents of the University of Colorado, a body corporate, priority 2018, published 2022)
At least one compound was matched to its structure with a doubt left.

Test system: primary MM cells in patient bone marrow aspirate MNC cultures
Test: Myeloma drug sensitivity testing (My-DST): ex vivo 48 h culture of patient bone marrow MNCs, flow cytometry of surviving MM cells
Source text: Extra bone marrow aspirate was collected from patients at University of Colorado Blood Cancer and Bone Marrow Transplant Program after informed consent. Samples from patients with multiple myeloma or smoldering myeloma were obtained from the hematologic malignancies tissue bank with protocol approval from the Western Institutional Review Board. MNCs were isolated from the samples using SepMate Ficoll-Plaque tubes (StemCell Technologies). Normal donor samples were purchased from AllCells. Selection of CD138^+ cells was performed with magnetic bead columns (Miltenyi), only where specifically noted.
De-identified primary myeloma samples were thawed and incubated with 100 μg DNase I (Sigma-Aldrich). Samples were washed twice with 10 mL Dulbecco's Phosphate Buffered Saline (DPBS) without calcium and magnesium. Cells were resuspended in RPMI1640 medium containing L-glutamine with 10% FBS and 100 U/mL penicillin and 100 μg/mL streptomycin (Thermo Fisher Scientific) and 2 ng/mL IL-6 (PeproTech) at 37° C. for 2 hours. Cells were then transferred to 96-well plates at 4.5×10^5 cells/mL (90,000 MNCs per well) and drug treated for 48 hours. PIs, IMiDs and Dex were purchased from Thermo Fisher. […] Stock drug solutions were prepared at 10 mM in DMSO and stored at −20° C. until use. Dara was obtained from University of Colorado Health Pharmacy. Clodronate-liposomes were purchased from Encapsula Nanosciences to block macrophage activity.
After 48-hour treatment primary samples were washed in 1× cold DPBS and re-suspended in BD Brilliant Stain Buffer (BD Biosciences) in a 96-well v-bottom plate. Cells were treated with FcR Blocking Reagent (Miltenyi Biotec) for 5 minutes and then surface stained with the antibodies anti-CD19-BV786, anti-CD45-BV510, monoclonal anti-CD38-BV421 or multi-epitope anti-CD38-FITC (ALPCO), anti-CD138-BV421 and anti-CD319-APC or anti-CD46 conjugated to Alexa647 with the Antibody Labeling Kit (In Vitrogen). Intracellular staining with anti-kappa-BV605 and anti-lambda-PE light chains was performed after paraformaldehyde fixation and permeabilization. […]

C[C@@H]1C[C@H]2[C@@H]3CCC4=CC(=O)C=C[C@]4(C)[C@@]3(F)[C@@H](O)C[C@]2(C)[C@@]1(O)C(=O)CO [D, dexamethasone]
viability of MM cells compared to untreated controls (FIG. 1G) (48 h, representative patient sample): reduced viability specifically in the MM cells | EV sensitivity in samples from patients with prior clinical exposure versus naïve (FIGS. 8C-8F): unchanged | change of ex vivo drug sensitivity between biopsies at multiple time points (patient 634, multiple relapse time points (FIG. 5E)): regained sensitivity
